B1: 73W 74T (protein, listed as Rattus norvegicus)
chain: AFDGTWKVDRNENYEKFMEKMGINVVKRKLGAHDNLKLTITQEGNKFTVKESSNFRNIDVVFELGVDFAYSLWTGTELTGTWTMEGNKLVGKFKRVDNGKELIAVREISGNELIQTYTYEGVEAKRIFKKE
modifications: PEPTIDE (1)...(131) wild-type rat intestinal fatty acid binding protein
B2: 72S 73W 74E (protein, listed as Rattus norvegicus)
chain: B1 chain with L72S, T74E
modifications: PEPTIDE (1)...(131) wild-type rat intestinal fatty acid binding protein
B3: 21F 78I 102F 72A (protein, listed as Rattus norvegicus)
chain: B1 chain with M21F, L72A, W73A, T74D, L78I, L102F
modifications: PEPTIDE (1)...(131) wild-type rat intestinal fatty acid binding protein
B4: 72A 73W 74S (protein, listed as Rattus norvegicus)
chain: B1 chain with L72A, T74S
modifications: PEPTIDE (1)...(131) wild-type rat intestinal fatty acid binding protein
B5: 72H 73P 74L (protein, listed as Rattus norvegicus)
chain: B1 chain with L72H, W73P, T74L
modifications: PEPTIDE (1)...(131) wild-type rat intestinal fatty acid binding protein
B6: 72S 73W 74N (protein, listed as Rattus norvegicus)
chain: B1 chain with L72S, T74N
modifications: PEPTIDE (1)...(131) wild-type rat intestinal fatty acid binding protein
B7: 72S 73W 74S (protein, listed as Rattus norvegicus)
chain: B1 chain with L72S, T74S
modifications: PEPTIDE (1)...(131) wild-type rat intestinal fatty acid binding protein
B8: 72V 73L 74W (protein, listed as Rattus norvegicus)
chain: B1 chain with L72V, W73L, T74W
modifications: PEPTIDE (1)...(131) wild-type rat intestinal fatty acid binding protein
B9: 72T 73W 74S (protein, listed as Rattus norvegicus)
chain: B1 chain with L72T, T74S
modifications: PEPTIDE (1)...(131) wild-type rat intestinal fatty acid binding protein
B10: 60T 104T 115W 74F 72A (protein, listed as Rattus norvegicus)
chain: B1 chain with V60T, L72A, W73A, T74F, A104T, Q115W
modifications: PEPTIDE (1)...(131) wild-type rat intestinal fatty acid binding protein
B11: 72G 73W 74E (protein, listed as Rattus norvegicus)
chain: B1 chain with L72G, T74E
modifications: PEPTIDE (1)...(131) wild-type rat intestinal fatty acid binding protein
B12: 72A 73W 74E (protein, listed as Rattus norvegicus)
chain: B1 chain with L72A, T74E
modifications: PEPTIDE (1)...(131) wild-type rat intestinal fatty acid binding protein

Residue numbers refer to the chain shown, from its start.

The nature of one data set: Baseline fluorescence ratio Ro of probe in absence of analyte. The settings on record: baseline fluorescence ratio of probe.
With B1, the Ro turned out to be 0.368. As for B2, the Ro came out at 0.520. On the same count and under the same terms, the result for B3 reads 0.400; that for B4, 0.353; that for B5, 0.933.

Turning to B6, the Ro is 0.639. Still for that read-out and setting: then B7, with 0.597. As for B8, the Ro came to 0.248. The same measure, in the same setting: then B9, with 0.574; and B10, with 0.136; and B11, with 0.576. Still for that read-out and setting: the result for B12 reads 0.503.

The same data set, now with this note: baseline fluorescence ratio of probe, no fatty acid.
Regarding B1, the Ro is given as 0.368. The same measure, in the same setting: the result for B8 reads 0.248.
